Where a sequence shows no end group, the ends are not given.
Assay: peptide made by a vendor
Settings: whole synthesis

HRAEVQIARKLQCIADQFHRLHTQ
final purity (method not given): 85%

Source: patent publication US20080027145A1 (priority 2004, published 2008)
